# Assay results published in the supplement of paper PMC12823440, “Inhibitors supercharge kinase turnover through native proteolytic circuits” (Nature, 2025).
# Chains of the proteins cited; added tags and fusions are not shown. Lines headed by an entry give the natural chain unless they say otherwise; changes in a name come on top.
# UniProt Q6PHR2: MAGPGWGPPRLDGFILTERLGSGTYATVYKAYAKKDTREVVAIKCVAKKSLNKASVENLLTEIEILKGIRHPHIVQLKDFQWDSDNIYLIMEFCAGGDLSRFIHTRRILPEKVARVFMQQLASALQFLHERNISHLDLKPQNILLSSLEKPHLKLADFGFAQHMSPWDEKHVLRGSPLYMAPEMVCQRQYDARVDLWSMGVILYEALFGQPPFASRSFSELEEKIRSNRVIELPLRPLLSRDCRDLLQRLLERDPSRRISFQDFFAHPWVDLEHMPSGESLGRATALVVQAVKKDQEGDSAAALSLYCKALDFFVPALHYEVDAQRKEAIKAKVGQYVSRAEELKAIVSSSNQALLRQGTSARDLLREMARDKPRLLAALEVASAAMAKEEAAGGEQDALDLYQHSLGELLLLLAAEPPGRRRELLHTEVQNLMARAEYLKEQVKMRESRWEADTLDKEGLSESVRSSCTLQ
# Where a name gives a salt, the structure may show the parent alone. The list shows a part of the results. The calls rarely recur for the same compound in another form.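 In K562 cells expressing nanoluciferase-fused kinases, luminescence was recorded at 4 h intervals between 2 and 18 h, normalized as percent of control with DMSO at 100% and a positive control at 0%. A significant (2 sigma) signal drop marks a time point as decreased. The authors' rule for a hit is not shown and takes in more than the number of time points.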
# Target: ULK3 (UniProt Q6PHR2)
# Assay: number of time points (of 5) at which kinase-Nluc abundance scored as decreased, DMSO-normalised (count); higher = more persistent destabilization
# Settings: K562; 2-18 h
row,SMILES,number of time points
1,COc1ccc(Br)c(C=O)c1O [6-Bromo-2-hydroxy-3-methoxybenzaldehyde] (10 µM),0
2,O=C1C=CC2=C3c4cc(O)c(O)cc4CC3(O)COC2=C1O (centres undefined) [Hematein] (10 µM),0
3,Cc1cccc(CC(=O)N2CCc3c2ccc(-c2cn(C)c4ncnc(N)c24)c3F)n1 (10 µM),0
4,COCCOc1cnc2ccn([C@H](C)c3nnc4c(F)cc(-c5cnn(C)c5)cn34)c(=O)c2c1 (10 µM),0
5,Cn1cc(C2=C(c3ccc(Cl)cc3Cl)C(=O)NC2=O)c2ccccc21 (10 µM),0
6,COc1cc(N2CCC(N3CCN(C)CC3)CC2)ccc1Nc1ncnc(Nc2ccccc2S(=O)(=O)C(C)C)n1 (10 µM),0
7,COc1c(Nc2ncc(Cl)c(N[C@H]3[C@@H](C(N)=O)[C@@H]4C=C[C@H]3C4)n2)ccc2c1CC[C@@H](N1CCOCC1)CC2 (10 µM),0
8,Cc1ccc(NC(=O)N2CCN(c3nc(N)nc4sc(-c5cccnc5)nc34)CC2)cc1 [PI4KIII beta inhibitor 3] (10 µM),0
9,CNc1cc2c(Nc3cccc(Br)c3)ncnc2cn1 (10 µM),0
10,CC(C)n1c(CO)nc2c(F)cc(-c3nc(Nc4ccc(CN5CCNCC5)cn4)ncc3F)cc21 (10 µM),0
11,CN1CCC(Nc2ccc(C(=O)Nc3cc(-c4ccc5c(c4)OCO5)[nH]n3)cc2)CC1 (10 µM),0
12,CNC(=O)CN1CCC(Oc2cc3c(Nc4cccc(Cl)c4F)ncnc3cc2OC)CC1 [Sapitinib] (10 µM),0
13,O=C(O)c1c[nH]c2cc(Cl)c(-c3ccc(C4(O)CCC4)cc3)cc12 (10 µM),0
14,COc1cc(N2CCC(O)CC2)ccc1Nc1nc(Nc2ccccc2S(=O)(=O)C(C)C)c2[nH]cnc2n1 (10 µM),0
15,O=c1c(O)c(-c2ccc(O)c(O)c2)oc2cc(O)c(O)c(O)c12 [Quercetagetin] (10 µM),0
16,Cc1ncsc1-c1ccc(CNC(=O)[C@@H]2C[C@@H](O)CN2C(=O)[C@@H](NC(=O)COCCOc2ccc(-c3cc(Nc4ccc(OC(F)(F)F)cc4)ncn3)cc2)C(C)(C)C)cc1 (2.5 µM),2
17,COc1cc(Nc2ccnc3ccc(Br)cc23)cc(OC)c1OC (2.5 µM),0
18,Cc1ccc2c(NS(=O)(=O)c3ccccc3Cl)cccc2c1Oc1ncccc1-c1ccnc(N[C@H]2CCCNC2)n1 (2.5 µM),0
19,CC(C)c1cc2c(c(O)c1O)[C@@]13CCCC(C)(C)[C@@H]1C[C@@H]2OC3=O [Carnosol] (2.5 µM),0
20,Cc1nc2c(NCc3cccc(S(C)(=O)=O)c3)nccn2c1-c1ccc(O)c(F)c1 (10 µM),0

# Nothing new here: two of the compounds above.
row,SMILES,number of time points
6,COc1cc(N2CCC(N3CCN(C)CC3)CC2)ccc1Nc1ncnc(Nc2ccccc2S(=O)(=O)C(C)C)n1 (10 µM),0
7,COc1c(Nc2ncc(Cl)c(N[C@H]3[C@@H](C(N)=O)[C@@H]4C=C[C@H]3C4)n2)ccc2c1CC[C@@H](N1CCOCC1)CC2 (10 µM),0

# Next part:

row,SMILES,number of time points
1,CC(C)n1cnc2c(Nc3cccc(Cl)c3)nc(N[C@H]3CCCC[C@@H]3N)nc21 (2.5 µM),0
2,O=c1cc(N2CCOCC2)oc2c(-c3cccc4c3sc3ccccc34)cccc12 (10 µM),0
3,C[C@@H]1COC(Nc2ccc3ncnc(Nc4ccc(OCc5nccs5)c(Cl)c4)c3c2)=N1 [Varlitinib] (10 µM),0
4,Cc1cncc2cccc(S(=O)(=O)N3CCCNC[C@@H]3C)c12 [H-1152 (dihydrochloride)] (10 µM),0
5,CCC[C@H](C)Oc1nc(N)c2[nH]c(=O)n(CCCCCN3CCCCC3)c2n1 (10 µM),0
6,CC(C)(Oc1ccc(Cl)cc1)C(=O)Nc1ccc(OCc2ccc(C#N)cc2)cc1 [AMPK activator 4] (10 µM),0
7,Cc1cc(N2CCOCC2)ccc1Nc1nc(NC2CCCCC2)c2[nH]cnc2n1 (10 µM),0
8,CC(ONC(=O)c1cc(C(F)(F)F)cc(C(F)(F)F)c1)C(=O)Nc1ccc(Cl)cc1 (centres undefined) (2.5 µM),0
9,O=S(=O)(c1ccc(O)cc1O)N1Cc2cc(O)cc(O)c2C1 (10 µM),0
10,CN1CCN(c2ccc(-n3cc(-c4ccncc4OCC4CCNCC4)cn3)cc2)CC1 [MELK-8a (hydrochloride)] (10 µM),4
11,CCCCC(=O)OCC(=O)[C@]1(O)Cc2c(O)c3c(c(O)c2[C@@H](O[C@H]2C[C@H](NC(=O)C(F)(F)F)[C@H](O)[C@H](C)O2)C1)C(=O)c1c(OC)cccc1C3=O [Valrubicin] (10 µM),0
12,CC(C)=CCC[C@](C)(O[C@@H]1O[C@H](CO[C@@H]2O[C@H](CO)[C@@H](O)[C@H](O)[C@H]2O)[C@@H](O)[C@H](O)[C@H]1O)[C@H]1CC[C@]2(C)[C@@H]1[C@H](O)C[C@@H]1[C@@]3(C)CC[C@H](O[C@@H]4O[C@H](CO)[C@@H](O)[C@H](O)[C@H]4O[C@@H]4O[C@H](CO)[C@@H](O)[C@H](O)[C@H]4O)C(C)(C)[C@@H]3CC[C@]12C [Ginsenoside Rb1] (10 µM),0
13,O=c1cc(-c2ccc(O[C@@H]3O[C@H](CO)[C@@H](O)[C@H](O)[C@H]3O)cc2)oc2cc(O)c([C@@H]3O[C@H](CO)[C@@H](O)[C@H](O)[C@H]3O[C@@H]3OC[C@H](O)[C@H](O)[C@H]3O)c(O)c12 [Vaccarin] (10 µM),0
14,Nc1ccc(Sc2nc3ccccc3s2)c(Cl)c1 [KRAS inhibitor-9] (10 µM),0
15,COc1ccc2cc1Oc1ccc(cc1)C[C@H]1c3cc(c(OC)cc3CCN1C)Oc1c(O)c(OC)cc3c1[C@H](C2)N(C)CC3 [Fangchinoline] (2.5 µM),0
16,Nc1nccc(Oc2ccc3c(C(=O)Nc4cccc(C(F)(F)F)c4)cccc3c2)n1 (10 µM),3
17,CN1C(=O)N[C@@H](Cc2c[nH]c3c(Cl)cccc23)C1=O [Necrostatin 2 (S enantiomer)] (10 µM),0
18,Cc1ncc(-c2cc(F)c(O)c(F)c2)cc1-c1cc(F)c(O)c(F)c1 (10 µM),0
19,N=C(NC(=N)N1CCCC1)Nc1ccc(OC(F)(F)F)cc1 (10 µM),0
